The values below come from patent publication US6939946B2 (Eli Lilly and Company, priority 1998, dated 2005).

A short description of this series: general procedure: solution-phase peptide synthesis; DCC/N-hydroxysuccinimide active ester; PyBOP/diisopropylethylamine; hydroxybenzo. The following applies: coupling step.

Regarding “DiBOC silyl (-L-)-(α)-N-BOC-2,3-diaminopropionic acid-(-L-)-(α)-N-CBZ-(β)-N-trifluoroacetyl 2,3-diaminopropionic acid linear heptapeptide”, the step yield is given as 56%.
